Among the data in PMC7033311, “The Eaf3 chromodomain acts as a pH sensor for gene expression by altering its binding affinity for histone methylated-lysine residues” (Bioscience Reports, 2020) are binding values, retold here.

Protein sequences, listed by entry. Tags and fused reporters are not part of them. Lines headed by an entry give the natural chain unless they say otherwise; changes in a name come on top. Chains listed by the source or under a name are the forms on record and can include a tag or linker. Residues count along the entry.
Eaf3 chromodomain (residues 1-120) Y81A (Q12432, form named): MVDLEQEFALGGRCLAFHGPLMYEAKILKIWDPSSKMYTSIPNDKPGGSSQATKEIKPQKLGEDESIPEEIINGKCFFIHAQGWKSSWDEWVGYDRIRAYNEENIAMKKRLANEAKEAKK
Eaf3 chromodomain (residues 1-120) W88A (Q12432, form named): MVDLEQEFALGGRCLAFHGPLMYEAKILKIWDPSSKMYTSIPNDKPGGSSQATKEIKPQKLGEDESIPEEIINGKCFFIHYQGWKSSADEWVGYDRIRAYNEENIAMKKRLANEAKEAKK
Eaf3 chromodomain (residues 1-120) Q82A (Q12432, form named): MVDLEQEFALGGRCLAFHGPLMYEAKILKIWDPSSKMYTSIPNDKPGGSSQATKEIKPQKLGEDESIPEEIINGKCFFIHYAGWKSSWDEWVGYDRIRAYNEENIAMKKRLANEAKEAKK
Eaf3 chromodomain (residues 1-120) W84A (Q12432, form named): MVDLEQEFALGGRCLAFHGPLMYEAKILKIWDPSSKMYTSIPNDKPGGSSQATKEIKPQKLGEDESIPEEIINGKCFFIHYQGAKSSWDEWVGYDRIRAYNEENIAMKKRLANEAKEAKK
Eaf3 chromodomain (residues 1-120) W84Y (Q12432, form named): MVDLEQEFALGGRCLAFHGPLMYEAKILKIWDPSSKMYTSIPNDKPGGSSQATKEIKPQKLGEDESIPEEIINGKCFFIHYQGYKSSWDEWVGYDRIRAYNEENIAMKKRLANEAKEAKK

No constants are given. Whether binding was seen depends on the method and setting.

Holding throughout (experiment): SEC; size exclusion chromatograms of wild-type and mutant Eaf3 CD (Superdex75 in the purification); peaks marked D: dimer, M: monomer; both purified
In general terms: SEC sorts molecules by how far they enter the pores of the column.

The target of assay [1] is Eaf3 chromodomain (residues 1-120) Y81A (Saccharomyces cerevisiae) (UniProt Q12432).
The target in assay [2] is Eaf3 chromodomain (residues 1-120) W88A (Saccharomyces cerevisiae) (UniProt Q12432).
The target in assay [3] is Eaf3 chromodomain (residues 1-120) Q82A (Saccharomyces cerevisiae) (UniProt Q12432).
Assay [4] addresses Eaf3 chromodomain (residues 1-120) W84A (Saccharomyces cerevisiae) (UniProt Q12432).
The target in assay [5] is Eaf3 chromodomain (residues 1-120) W84Y (Saccharomyces cerevisiae) (UniProt Q12432).

Consider “Eaf3 chromodomain (residues 1-120) Y81A (from UniProt Q12432 1-120) (domain or fragment)”, for which, in assay [1], the binding entry is “no binding”.

Consider “Eaf3 chromodomain (residues 1-120) W88A (from UniProt Q12432 1-120) (domain or fragment)”, for which, in assay [2], the binding result is given as “no binding”.

In the case of “Eaf3 chromodomain (residues 1-120) Q82A (from UniProt Q12432 1-120) (domain or fragment)”, the binding entry in assay [3] is reported as “no binding”.

On to “Eaf3 chromodomain (residues 1-120) W84A (from UniProt Q12432 1-120) (domain or fragment)”, for which the binding result in assay [4] is “no binding”.

In the case of “Eaf3 chromodomain (residues 1-120) W84Y (from UniProt Q12432 1-120) (domain or fragment)”, in assay [5], the binding entry is reported as “no binding”.
